# Data as given in publication PMC6925144, “A prospective compound screening contest identified broader inhibitors for Sirtuin 1” (Scientific Reports, 2019).
# Sequences of proteins named here, by UniProt entry; tags and fusion partners are left off. Residues count along the entry.
# UniProt Q96EB6, 2-747 limits assumed: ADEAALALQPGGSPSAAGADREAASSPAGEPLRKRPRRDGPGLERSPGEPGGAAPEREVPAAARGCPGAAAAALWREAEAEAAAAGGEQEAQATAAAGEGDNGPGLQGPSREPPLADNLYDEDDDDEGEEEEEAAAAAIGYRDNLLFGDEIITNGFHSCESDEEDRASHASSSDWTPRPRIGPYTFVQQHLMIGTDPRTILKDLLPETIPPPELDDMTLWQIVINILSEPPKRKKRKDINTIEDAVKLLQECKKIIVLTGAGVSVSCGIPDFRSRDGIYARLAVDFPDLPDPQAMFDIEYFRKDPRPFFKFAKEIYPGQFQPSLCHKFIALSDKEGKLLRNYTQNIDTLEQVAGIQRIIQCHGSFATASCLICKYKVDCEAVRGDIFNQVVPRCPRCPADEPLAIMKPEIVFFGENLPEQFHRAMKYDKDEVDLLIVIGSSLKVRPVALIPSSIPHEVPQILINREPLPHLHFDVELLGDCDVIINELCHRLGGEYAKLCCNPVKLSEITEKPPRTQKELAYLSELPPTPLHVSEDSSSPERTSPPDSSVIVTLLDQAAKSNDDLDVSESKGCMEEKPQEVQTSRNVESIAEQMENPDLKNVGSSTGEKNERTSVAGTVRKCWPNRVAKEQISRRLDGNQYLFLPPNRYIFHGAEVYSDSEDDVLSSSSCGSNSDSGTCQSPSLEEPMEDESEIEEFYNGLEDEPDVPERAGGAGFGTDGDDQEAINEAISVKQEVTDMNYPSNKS
# The full ranking holds about 3,200 compounds; the median of “TSA(without NAD+) / Primary screening (TSA) / delta Tm (K)” is about -0.07, and the highest 2% start at about 0.37. Some of the results follow.
# Target: NAD-dependent deacetylase Sirtuin 1 (human, UniProt Q96EB6)
# Experiment: primary screen, delta tm
# Parameters: single well (n = 1)
# Details: 10 µM
# In short: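 Thermal shift of Sirtuin 1 measured without NAD+, compound at 10 µM (n = 1); value is ΔTm, with hits defined as ΔTm > 0.45 K or < −1.5 K. Hits retested at 5, 10, 20 µM (n = 4) and counterscreened on bovine carbonic anhydrase and ABL1 SH2 domain.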
row,Structure (SMILES),TSA(without NAD+) / Primary screening (TSA) / delta Tm (K)
1,NC(=O)C1CCN(c2ncnc3c2c(-c2ccccc2)cn3-c2cccc(C(F)(F)F)c2)CC1,-0.07
2,Cc1cc(C(=O)COC(=O)C23CC4CC(CC(O)(C4)C2)C3)c(C)n1-c1cccc(S(=O)(=O)N2CCOCC2)c1,-0.03
3,CNC(=O)COc1cc(F)ccc1F,-0.03
4,CNC(=O)CCNc1ccc2nnc(C(F)(F)F)n2n1,0.03
5,CC1CCC/C(=N/NC(=O)c2ccc(Cn3nnc(-c4ccccc4)n3)cc2)C1 (stereo not shown),-0.08
6,Cc1ccc(N(C)S(=O)(=O)c2cccc(C(=O)OC3CCOC3=O)c2)cc1 (stereo not shown),-0.07
7,Cc1nc2c3ccccc3nc(SCc3nc(N)nc(Nc4ccc(F)cc4)n3)n2n1,0.18
8,CC1(C)NC(=O)N(CC(=O)Nc2sc3c(c2-c2nc4ccccc4[nH]2)CCCC3)C1=O,0.26
9,Cc1ccc(N(C)S(=O)(=O)c2cccc(C(=O)Nc3cccc(C#N)c3)c2)cc1,0.43
10,CC1CC1CN (stereo not shown),-0.13
11,O=C(COc1ncnc2sc3c(c12)CCCC3)N1CCc2ccccc21,0.07
12,Cc1cc(C(=O)COC(=O)C23CC4CC(CC(Cl)(C4)C2)C3)c(C)n1Cc1ccc2c(c1)OCO2,-0.04
13,COC(OC)C(C)N (stereo not shown),-0.03
14,COc1cc(CN(C)C(=O)c2ccc(CNC(N)=O)cc2)ccc1OCc1ccccc1,-0.14
15,Cc1c(C)n(-c2ccc(Cl)cc2)c2ncnc(N)c12,-0.24
16,CCC(C)(C)C(=O)N1CCc2cnccc21,-0.18
17,O=c1onc(-c2cnccn2)n1Cc1nc2cc([N+](=O)[O-])ccc2o1,-0.12
18,O=C(C1CCCc2ccccc21)N1CCCC(c2nc3ccccc3o2)C1 (stereo not shown),-0.02
19,C=CCn1c(SCC(=O)Nc2ccc(C(N)=O)cc2)nnc1-c1ccncc1,0.06
20,Cc1ccnc(NC(=O)C2CCN(c3ncnc4scc(-c5ccc(F)cc5)c34)CC2)c1,-0.18

row,Structure (SMILES),TSA(without NAD+) / Primary screening (TSA) / delta Tm (K)
1,O=C(O)CCc1ccc(S(=O)(=O)Nc2ccc3[nH]c(-c4ccc(F)cc4)nc3c2)cc1,-0.03
2,Cc1ccc(-c2csc3ncn(CC(=O)NCC(=O)Nc4ccc(F)c(F)c4F)c(=O)c23)s1,0.07
3,Cc1c(C=C2C(=O)NC(=S)NC2=O)c2ccccn2c1C(=O)c1cccc([N+](=O)[O-])c1,0.06
4,COc1cccc(/C=N/c2ccc(C)cc2)c1OC,-0.18
5,COc1ccc(Br)cc1C=C1C(=O)c2ccccc2C1=O,0.07
6,O=C(Nc1ccc2[nH]c(=O)[nH]c2c1)C1c2ccccc2Oc2ccccc21,-0.04
7,Cc1nc(CSc2ccccc2C(=O)NCc2ccc(Cn3ccnc3)cc2)no1,-0.08
8,CCCOc1ccc(C(=O)C2=C(O)C(=O)N(CCN3CCOCC3)C2c2ccccn2)cc1 (stereo not shown),0.13
9,Cc1ccc(-c2nn(-c3ccccc3)cc2C=C2C(=O)NC(=S)NC2=O)o1,0.13
10,COc1cc(NC(=O)c2cccs2)c(C(=O)OCC(=O)NC23CC4CC(CC(C4)C2)C3)cc1OC,0.18
11,Cc1cc(C)c(CCNC(=O)NC2CCCNC2=O)c(C)c1 (stereo not shown),-0.12
12,CC(C)Oc1ccc(-c2nc(C(=O)OC3CCCN(Cc4ncccn4)C3)cs2)cc1 (stereo not shown),-0.02
13,COc1ccc(/C=C/C(=O)NCCn2c(C)nc3ccccc32)cc1,-0.18
14,COc1ccc(C2CNC(c3ccccc3)c3[nH]c4ccccc4c32)cc1 (stereo not shown),-0.34
15,O=C(Nc1ccc(N2CCCCC2)cc1)c1cc(Cl)nc2ccccc12,-0.13
16,COc1ccc(N(C)S(=O)(=O)c2cccc(C(=O)Nc3cccc4ccccc34)c2)cc1,-0.13
17,O=C(Nc1cccc(S(=O)(=O)NCc2ccco2)c1)c1ccccc1OCc1ccccc1,-0.03
18,Cc1cccc([N+](=O)[O-])c1N,-0.18
19,O=C(O)c1c2ccccc2cc2ccccc12,-0.24
20,Cc1nc2ccc(C(=O)NC(Cc3ccccc3)C(N)=O)cc2nc1C (stereo not shown),-0.01

row,Structure (SMILES),TSA(without NAD+) / Primary screening (TSA) / delta Tm (K)
1,CCCc1noc(CSc2nccn2Cc2ccccn2)n1,-0.11
2,Cc1ccc(C)c(CSCc2nc3ccsc3c(=O)[nH]2)c1,-0.03
3,COC(=O)c1cc2c(C)nn(-c3ccc(F)cc3)c2s1,0.16
4,Cc1ccc(NC=C2C(=O)NC(=S)NC2=O)cc1,-0.23
5,CC(=O)C(C)N (stereo not shown),-0.21
6,COc1ncnc2c1CN(C(C)C(=O)N1CCc3ccccc31)CC2 (stereo not shown),-0.03
7,CCOc1nc2cc(C(=O)OCCC3CCCCN3C(=O)c3cccn3C)ccc2[nH]1 (stereo not shown),-0.13
8,COC(=O)c1sc2cccc(F)c2c1CNC(=O)Cn1cnnn1,0.15
9,CC(Oc1ccc(C#N)cc1)C(=O)NC(C)c1ccc2ccccc2c1 (stereo not shown),-0.07
10,COc1ccc(C(=O)C(C)OC(=O)c2c(C)noc2C)cc1 (stereo not shown),-0.21
11,C=CCNC(=O)c1ccc(NC(=O)N2CCC(C(=O)Nc3ccccc3OC)CC2)cc1,0.06
12,Cc1ccc(/C=C/S(=O)(=O)NCC(=O)Nc2ccccc2Cc2ccccc2)cc1,-0.03
13,CC(C)Oc1ccc(S(=O)(=O)N2CCOCC2)cc1NC(=O)C1=COCCO1,-0.12
14,NC(=O)c1ccccc1OCc1cccc(COc2ccccc2C(N)=O)c1,0.02
15,CCOc1ccc(S(=O)(=O)N(CC(=O)NC23CC4CC(CC(C4)C2)C3)Cc2ccccc2)cc1,0.05
16,COc1cc(C=C2C(=O)NC(=S)NC2=O)cc(Br)c1OC,-0.08
17,CC(C)c1ccc2c(c1)CCCN2C(=O)CCn1cnc2ccccc2c1=O,-0.34
18,CCCCN(C(=O)c1cccc(S(=O)(=O)N(C)c2ccc(C)cc2)c1)c1c(N)n(CC(C)C)c(=O)[nH]c1=O,0.09

# 16 entries already listed, sorted by formula weight, falling.
row,Structure (SMILES),TSA(without NAD+) / Primary screening (TSA) / delta Tm (K)
2,Cc1ccc(-c2csc3ncn(CC(=O)NCC(=O)Nc4ccc(F)c(F)c4F)c(=O)c23)s1,0.07
1,NC(=O)C1CCN(c2ncnc3c2c(-c2ccccc2)cn3-c2cccc(C(F)(F)F)c2)CC1,-0.07
17,O=C(Nc1cccc(S(=O)(=O)NCc2ccco2)c1)c1ccccc1OCc1ccccc1,-0.03
8,CCCOc1ccc(C(=O)C2=C(O)C(=O)N(CCN3CCOCC3)C2c2ccccn2)cc1 (stereo not shown),0.13
12,CC(C)Oc1ccc(-c2nc(C(=O)OC3CCCN(Cc4ncccn4)C3)cs2)cc1 (stereo not shown),-0.02
12,Cc1ccc(/C=C/S(=O)(=O)NCC(=O)Nc2ccccc2Cc2ccccc2)cc1,-0.03
7,Cc1nc(CSc2ccccc2C(=O)NCc2ccc(Cn3ccnc3)cc2)no1,-0.08
9,Cc1ccc(N(C)S(=O)(=O)c2cccc(C(=O)Nc3cccc(C#N)c3)c2)cc1,0.43
6,Cc1ccc(N(C)S(=O)(=O)c2cccc(C(=O)OC3CCOC3=O)c2)cc1 (stereo not shown),-0.07
14,NC(=O)c1ccccc1OCc1cccc(COc2ccccc2C(N)=O)c1,0.02
11,O=C(COc1ncnc2sc3c(c12)CCCC3)N1CCc2ccccc21,0.07
18,O=C(C1CCCc2ccccc21)N1CCCC(c2nc3ccccc3o2)C1 (stereo not shown),-0.02
6,O=C(Nc1ccc2[nH]c(=O)[nH]c2c1)C1c2ccccc2Oc2ccccc21,-0.04
6,COc1ncnc2c1CN(C(C)C(=O)N1CCc3ccccc31)CC2 (stereo not shown),-0.03
13,COc1ccc(/C=C/C(=O)NCCn2c(C)nc3ccccc32)cc1,-0.18
3,COC(=O)c1cc2c(C)nn(-c3ccc(F)cc3)c2s1,0.16
